Results are given in words; binding and its absence hold for the method and conditions named. Some binding calls cover weakened binding; strength is not graded here. Sequences can lack the tags named with a protein.
How the values were obtained:
[1] = target: T1, human Nth1 protein (human) (UniProt P78549); test: far western: ^32P-labelled XPG-HMK probe on hNth1 transferred from SDS-PAGE
T1 sequence (looked up): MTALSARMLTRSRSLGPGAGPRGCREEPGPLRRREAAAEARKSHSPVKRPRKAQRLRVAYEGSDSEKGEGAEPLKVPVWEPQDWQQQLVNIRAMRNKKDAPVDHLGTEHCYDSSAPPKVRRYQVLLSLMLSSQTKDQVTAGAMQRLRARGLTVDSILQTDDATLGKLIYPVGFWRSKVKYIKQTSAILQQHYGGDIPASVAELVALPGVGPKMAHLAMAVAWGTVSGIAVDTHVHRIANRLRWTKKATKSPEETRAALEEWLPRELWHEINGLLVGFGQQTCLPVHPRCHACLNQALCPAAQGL

[2] = target: T1, human Nth1 protein (human); test: slot blot: ^32P-labelled XPG-HMK probe on native proteins on nitrocellulose (FIG. 8B)
[3] = target: T1, human Nth1 protein (human); test: far western: ^32P-labelled XPG-HMK probe on proteins transferred from SDS-PAGE (FIG. 8A)

binding [1]: binds | binding [2]: binds | binding [3]: binds
B1: ^32P-labelled XPG-HMK (human XPG with a C-terminal heart muscle kinase recognition sequence tag) (enzyme)
chain: MGVQGLWKLLECSGRQVSPEALEGKILAVDISIWLNQALKGVRDRHGNSIENPHLLTLFHRLCKLLFFRIRPIFVFDGDAPLLKKQTLVKRRQRKDLASSDSRKTTEKLLKTFLKRQAIKTAFRSKRDEALPSLTQVRRENDLYVLPPLQEEEKHSSEEEDEKEWQERMNQKQALQEEFFHNPQAIDIESEDFSSLPPEVKHEILTDMKEFTKRRRTLFEAMPEESDDFSQYQLKGLLKKNYLNQHIEHVQKEMNQQHSGHIRRQYEDEGGFLKEVESRRVVSEDTSHYILIKGIQAKTVAEVDSESLPSSSKMHGMSFDVKSSPCEKLKTEKEPDATPPSPRTLLAMQAALLGSSSEEELESENRRQARGRNAPAAVDEGSISPRTLSAIKRALDDDEDVKVCAGDDVQTGGPGAEEMRINSSTENSDEGLKVRDGKGIPFTATLASSSVNSAEEHVASTNEGREPTDSVPKEQMSLVHVGTEAFPISDESMIKDRKDRLPLESAVVRHSDAPGLPNGRELTPASPTCTNSVSKNETHAEVLEQQNELCPYESKFDSSLLSSDDETKCKPNSASEVIGPVSLQETSSIVSVPSEAVDNVENVVSFNAKEHENFLETIQEQQTTESAGQDLISIPKAVEPMEIDSEESESDGSFIEVQSVISDEELQAEFPETSKPPSEQGEEELVGTREGEAPAESESLLRDNSERDDVDGEPQEAEKDAEDSLHEWQDINLEELETLESNLLAQQNSLKAQKQQQERIAATVTGQMFLESQELLRLFGIPYIQAPMEAEAQCAILDLTDQTSGTITDDSDIWLFGARHVYRNFFNKNKFVEYYQYVDFHNQLGLDRNKLINLAYLLGSDYTEGIPTVGCVTAMEILNEFPGHGLEPLLKFSEWWHEAQKNPKIRPNPHDTKVKKKLRTLQLTPGFPNPAVAEAYLKPVVDDSKGSFLWGKPDLDKIREFCQRYFGWNRTKTDESLFPVLKQLDAQQTQLRIDSFFRLAQQEKEDAKRIKSQRLNRAVTCMLRKEKEAAASEIEAVSVAMEKEFELLDKAKGKTQKRGITNTLEESSSLKRKRLSDSKGKNTCGGFLGETCLSESSDGSSSEDAESSSLMNVQRRTAAKEPKTSASDSQNSVKEAPVKNGGATTSSSSDSDDDGGKEKMVLVTARSVFGKKRRKLRRARGRKRKTRRASV
modifications: ^32P-labeled at the heart muscle kinase (HMK) recognition tag RRASV
